Assay results taken from paper PMC5548489.
These are yes or no findings as the source states them, for the method shown. Binding seen in cells or lysates may run through a third protein. These calls come from enrichment with a bait or labelling near it, and not all partners need be listed. Values belong to the binder of their own block, whether it stands above or below them.

Chains of the proteins cited; added tags and fusions are not shown.
UniProt P03372: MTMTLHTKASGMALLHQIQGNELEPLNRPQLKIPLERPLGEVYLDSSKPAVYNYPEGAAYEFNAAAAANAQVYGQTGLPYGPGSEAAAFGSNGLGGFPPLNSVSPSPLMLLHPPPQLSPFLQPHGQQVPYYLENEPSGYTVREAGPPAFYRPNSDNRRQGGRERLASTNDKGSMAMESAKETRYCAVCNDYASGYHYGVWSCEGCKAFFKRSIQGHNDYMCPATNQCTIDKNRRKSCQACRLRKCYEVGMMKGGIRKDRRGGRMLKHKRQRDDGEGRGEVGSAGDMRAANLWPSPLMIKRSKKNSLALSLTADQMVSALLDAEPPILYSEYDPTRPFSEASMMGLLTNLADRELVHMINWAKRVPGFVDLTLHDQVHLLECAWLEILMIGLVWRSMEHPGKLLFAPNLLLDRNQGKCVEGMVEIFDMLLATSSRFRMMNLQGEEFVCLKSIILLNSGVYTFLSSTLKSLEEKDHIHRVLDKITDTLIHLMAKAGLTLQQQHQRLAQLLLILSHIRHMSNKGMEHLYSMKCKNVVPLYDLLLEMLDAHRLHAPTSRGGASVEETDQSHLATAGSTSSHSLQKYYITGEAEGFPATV

Target: estrogen receptor alpha (ER) (human (endogenous in MCF-7 and ZR-75)) (UniProt P03372)
Test: affinity purification with mass spectrometry; anti-ER antibody (Santa Cruz sc-8002) on Dynabeads Protein G, 1.5 mg lysate of MCF-7 or ZR-75 cells overnight at 4°C; cells starved, vehicle or 10 µM ERX-11 for 2 hr, then 10 nM E2 for 2 hr; the named proteins are ER binders whose co-precipitation was disrupted by ERX-11

- binding: binds
B1: SEC24B (protein, UniProt O95487 1-1268)
chain: MSAPAGSSHPAASARIPPKFGGAAVSGAAAPAGPGAGPAPHQQNGPAQNQMQVPSGYGLHHQNYIAPSGHYSQGPGKMTSLPLDTQCGDYYSALYTVPTQNVTPNTVNQQPGAQQLYSRGPPAPHIVGSTLGSFQGAASSASHLHTSASQPYSSFVNHYNSPAMYSASSSVASQGFPSTCGHYAMSTVSNAAYPSVSYPSLPAGDTYGQMFTSQNAPTVRPVKDNSFSGQNTAISHPSPLPPLPSQQHHQQQSLSGYSTLTWSSPGLPSTQDNLIRNHTGSLAVANNNPTITVADSLSCPVMQNVQPPKSSPVVSTVLSGSSGSSSTRTPPTANHPVEPVTSVTQPSELLQQKGVQYGEYVNNQASSAPTPLSSTSDDEEEEEEDEEAGVDSSSTTSSASPMPNSYDALEGGSYPDMLSSSASSPAPDPAPEPDPASAPAPASAPAPVVPQPSKMAKPFGYGYPTLQPGYQNATAPLISGVQPSNPVYSGFQQYPQQYPGVNQLSSSIGGLSLQSSPQPESLRPVNLTQERNILPMTPVWAPVPNLNADLKKLNCSPDSFRCTLTNIPQTQALLNKAKLPLGLLLHPFRDLTQLPVITSNTIVRCRSCRTYINPFVSFIDQRRWKCNLCYRVNDVPEEFMYNPLTRSYGEPHKRPEVQNSTVEFIASSDYMLRPPQPAVYLFVLDVSHNAVEAGYLTILCQSLLENLDKLPGDSRTRIGFMTFDSTIHFYNLQEGLSQPQMLIVSDIDDVFLPTPDSLLVNLYESKELIKDLLNALPNMFTNTRETHSALGPALQAAFKLMSPTGGRVSVFQTQLPSLGAGLLQSREDPNQRSSTKVVQHLGPATDFYKKLALDCSGQQTAVDLFLLSSQYSDLASLACMSKYSAGCIYYYPSFHYTHNPSQAEKLQKDLKRYLTRKIGFEAVMRIRCTKGLSMHTFHGNFFVRSTDLLSLANINPDAGFAVQLSIEESLTDTSLVCFQTALLYTSSKGERRIRVHTLCLPVVSSLADVYAGVDVQAAICLLANMAVDRSVSSSLSDARDALVNAVVDSLSAYGSTVSNLQHSALMAPSSLKLFPLYVLALLKQKAFRTGTSTRLDDRVYAMCQIKSQPLVHLMKMIHPNLYRIDRLTDEGAVHVNDRIVPQPPLQKLSAEKLTREGAFLMDCGSVFYIWVGKGCDNNFIEDVLGYTNFASIPQKMTHLPELDTLSSERARSFITWLRDSRPLSPILHIVKDESPAKAEFFQHLIEDRTEAAFSYYEFLLHVQQQICK

- binding: binds
B2: STXBP2 (protein, UniProt Q15833 1-593)
chain: MAPSGLKAVVGEKILSGVIRSVKKDGEWKVLIMDHPSMRILSSCCKMSDILAEGITIVEDINKRREPIPSLEAIYLLSPTEKSVQALIKDFQGTPTFTYKAAHIFFTDTCPEPLFSELGRSRLAKVVKTLKEIHLAFLPYEAQVFSLDAPHSTYNLYCPFRAEERTRQLEVLAQQIATLCATLQEYPAIRYRKGPEDTAQLAHAVLAKLNAFKADTPSLGEGPEKTRSQLLIMDRAADPVSPLLHELTFQAMAYDLLDIEQDTYRYETTGLSEAREKAVLLDEDDDLWVELRHMHIADVSKKVTELLRTFCESKRLTTDKANIKDLSQILKKMPQYQKELNKYSTHLHLADDCMKHFKGSVEKLCSVEQDLAMGSDAEGEKIKDSMKLIVPVLLDAAVPAYDKIRVLLLYILLRNGVSEENLAKLIQHANVQAHSSLIRNLEQLGGTVTNPGGSGTSSRLEPRERMEPTYQLSRWTPVIKDVMEDAVEDRLDRNLWPFVSDPAPTASSQAAVSARFGHWHKNKAGIEARAGPRLIVYVMGGVAMSEMRAAYEVTRATEGKWEVLIGSSHILTPTRFLDDLKALDKKLEDIALP

- binding: binds
B3: HNRNPL (protein, UniProt P14866 1-589)
chain: MSRRLLPRAEKRRRRLEQRQQPDEQRRRSGAMVKMAAAGGGGGGGRYYGGGSEGGRAPKRLKTDNAGDQHGGGGGGGGGAGAAGGGGGGENYDDPHKTPASPVVHIRGLIDGVVEADLVEALQEFGPISYVVVMPKKRQALVEFEDVLGACNAVNYAADNQIYIAGHPAFVNYSTSQKISRPGDSDDSRSVNSVLLFTILNPIYSITTDVLYTICNPCGPVQRIVIFRKNGVQAMVEFDSVQSAQRAKASLNGADIYSGCCTLKIEYAKPTRLNVFKNDQDTWDYTNPNLSGQGDPGSNPNKRQRQPPLLGDHPAEYGGPHGGYHSHYHDEGYGPPPPHYEGRRMGPPVGGHRRGPSRYGPQYGHPPPPPPPPEYGPHADSPVLMVYGLDQSKMNCDRVFNVFCLYGNVEKVKFMKSKPGAAMVEMADGYAVDRAITHLNNNFMFGQKLNVCVSKQPAIMPGQSYGLEDGSCSYKDFSESRNNRFSTPEQAAKNRIQHPSNVLHFFNAPLEVTEENFFEICDELGVKRPSSVKVFSGKSERSSSGLLEWESKSDALETLGFLNHYQMKNPNGPYPYTLKLCFSTAQHAS

- binding: binds
B4: SRP72 (protein, UniProt O76094 1-671)
chain: MASGGSGGVSVPALWSEVNRYGQNGDFTRALKTVNKILQINKDDVTALHCKVVCLIQNGSFKEALNVINTHTKVLANNSLSFEKAYCEYRLNRIENALKTIESANQQTDKLKELYGQVLYRLERYDECLAVYRDLVRNSQDDYDEERKTNLSAVVAAQSNWEKVVPENLGLQEGTHELCYNTACALIGQGQLNQAMKILQKAEDLCRRSLSEDTDGTEEDPQAELAIIHGQMAYILQLQGRTEEALQLYNQIIKLKPTDVGLLAVIANNIITINKDQNVFDSKKKVKLTNAEGVEFKLSKKQLQAIEFNKALLAMYTNQAEQCRKISASLQSQSPEHLLPVLIQAAQLCREKQHTKAIELLQEFSDQHPENAAEIKLTMAQLKISQGNISKACLILRSIEELKHKPGMVSALVTMYSHEEDIDSAIEVFTQAIQWYQNHQPKSPAHLSLIREAANFKLKYGRKKEAISDLQQLWKQNPKDIHTLAQLISAYSLVDPEKAKALSKHLPSSDSMSLKVDVEALENSAGATYIRKKGGKVTGDSQPKEQGQGDLKKKKKKKKGKLPKNYDPKVTPDPERWLPMRERSYYRGRKKGKKKDQIGKGTQGATAGASSELDASKTVSSPPTSPRPGSAATVSASTSNIIPPRHQKPAGAPATKKKQQQKKKKGGKGGW

- binding: binds
B5: VPS39 (protein, UniProt Q96JC1 1-886)
chain: MHDAFEPVPILEKLPLQIDCLAAWEEWLLVGTKQGHLLLYRIRKDVVPADVASPESGSCNRFEVTLEKSNKNFSKKIQQIHVVSQFKILVSLLENNIYVHDLLTFQQITTVSKAKGASLFTCDLQHTETGEEVLRMCVAVKKKLQLYFWKDREFHELQGDFSVPDVPKSMAWCENSICVGFKRDYYLIRVDGKGSIKELFPTGKQLEPLVAPLADGKVAVGQDDLTVVLNEEGICTQKCALNWTDIPVAMEHQPPYIIAVLPRYVEIRTFEPRLLVQSIELQRPRFITSGGSNIIYVASNHFVWRLIPVPMATQIQQLLQDKQFELALQLAEMKDDSDSEKQQQIHHIKNLYAFNLFCQKRFDESMQVFAKLGTDPTHVMGLYPDLLPTDYRKQLQYPNPLPVLSGAELEKAHLALIDYLTQKRSQLVKKLNDSDHQSSTSPLMEGTPTIKSKKKLLQIIDTTLLKCYLHTNVALVAPLLRLENNHCHIEESEHVLKKAHKYSELIILYEKKGLHEKALQVLVDQSKKANSPLKGHERTVQYLQHLGTENLHLIFSYSVWVLRDFPEDGLKIFTEDLPEVESLPRDRVLGFLIENFKGLAIPYLEHIIHVWEETGSRFHNCLIQLYCEKVQGLMKEYLLSFPAGKTPVPAGEEEGELGEYRQKLLMFLEISSYYDPGRLICDFPFDGLLEERALLLGRMGKHEQALFIYVHILKDTRMAEEYCHKHYDRNKDGNKDVYLSLLRMYLSPPSIHCLGPIKLELLEPKANLQAALQVLELHHSKLDTTKALNLLPANTQINDIRIFLEKVLEENAQKKRFNQVLKNLLHAEFLRVQEERILHQQVKCIITEEKVCMVCKKKIGNSAFARYPNGVVVHYFCSKEVNPADT

- binding: binds
B6: VPS11 (protein, UniProt Q9H270 1-941)
chain: MAAYLQWRRFVFFDKELVKEPLSNDGAAPGATPASGSAASKFLCLPPGITVCDSGRGSLVFGDMEGQIWFLPRSLQLTGFQAYKLRVTHLYQLKQHNILASVGEDEEGINPLVKIWNLEKRDGGNPLCTRIFPAIPGTEPTVVSCLTVHENLNFMAIGFTDGSVTLNKGDITRDRHSKTQILHKGNYPVTGLAFRQAGKTTHLFVVTTENVQSYIVSGKDYPRVELDTHGCGLRCSALSDPSQDLQFIVAGDECVYLYQPDERGPCFAFEGHKLIAHWFRGYLIIVSRDRKVSPKSEFTSRDSQSSDKQILNIYDLCNKFIAYSTVFEDVVDVLAEWGSLYVLTRDGRVHALQEKDTQTKLEMLFKKNLFEMAINLAKSQHLDSDGLAQIFMQYGDHLYSKGNHDGAVQQYIRTIGKLEPSYVIRKFLDAQRIHNLTAYLQTLHRQSLANADHTTLLLNCYTKLKDSSKLEEFIKKKSESEVHFDVETAIKVLRQAGYYSHALYLAENHAHHEWYLKIQLEDIKNYQEALRYIGKLPFEQAESNMKRYGKILMHHIPEQTTQLLKGLCTDYRPSLEGRSDREAPGCRANSEEFIPIFANNPRELKAFLEHMSEVQPDSPQGIYDTLLELRLQNWAHEKDPQVKEKLHAEAISLLKSGRFCDVFDKALVLCQMHDFQDGVLYLYEQGKLFQQIMHYHMQHEQYRQVISVCERHGEQDPSLWEQALSYFARKEEDCKEYVAAVLKHIENKNLMPPLLVVQTLAHNSTATLSVIRDYLVQKLQKQSQQIAQDELRVRRYREETTRIRQEIQELKASPKIFQKTKCSICNSALELPSVHFLCGHSFHQHCFESYSESDADCPTCLPENRKVMDMIRAQEQKRDLHDQFQHQLKCSNDSFSVIADYFGRGVFNKLTLLTDPPTARLTSSLEAGLQRDLLMHSRRGT

- binding: binds
B7: VPS18 (protein, UniProt Q9P253 1-973)
chain: MASILDEYENSLSRSAVLQPGCPSVGIPHSGYVNAQLEKEVPIFTKQRIDFTPSERITSLVVSSNQLCMSLGKDTLLRIDLGKANEPNHVELGRKDDAKVHKMFLDHTGSHLLIALSSTEVLYVNRNGQKVRPLARWKGQLVESVGWNKALGTESSTGPILVGTAQGHIFEAELSASEGGLFGPAPDLYFRPLYVLNEEGGPAPVCSLEAERGPDGRSFVIATTRQRLFQFIGRAAEGAEAQGFSGLFAAYTDHPPPFREFPSNLGYSELAFYTPKLRSAPRAFAWMMGDGVLYGALDCGRPDSLLSEERVWEYPEGVGPGASPPLAIVLTQFHFLLLLADRVEAVCTLTGQVVLRDHFLEKFGPLKHMVKDSSTGQLWAYTERAVFRYHVQREARDVWRTYLDMNRFDLAKEYCRERPDCLDTVLAREADFCFRQRRYLESARCYALTQSYFEEIALKFLEARQEEALAEFLQRKLASLKPAERTQATLLTTWLTELYLSRLGALQGDPEALTLYRETKECFRTFLSSPRHKEWLFASRASIHELLASHGDTEHMVYFAVIMQDYERVVAYHCQHEAYEEALAVLARHRDPQLFYKFSPILIRHIPRQLVDAWIEMGSRLDARQLIPALVNYSQGGEVQQVSQAIRYMEFCVNVLGETEQAIHNYLLSLYARGRPDSLLAYLEQAGASPHRVHYDLKYALRLCAEHGHHRACVHVYKVLELYEEAVDLALQVDVDLAKQCADLPEEDEELRKKLWLKIARHVVQEEEDVQTAMACLASCPLLKIEDVLPFFPDFVTIDHFKEAICSSLKAYNHHIQELQREMEEATASAQRIRRDLQELRGRYGTVEPQDKCATCDFPLLNRPFYLFLCGHMFHADCLLQAVRPGLPAYKQARLEELQRKLGAAPPPAKGSARAKEAEGGAATAGPSREQLKADLDELVAAECVYCGELMIRSIDRPFIDPQRYEEEQLSWL
